In patent US11478515B2, “Compositions comprising probiotic and prebiotic components and mineral salts, with lactoferrin” (GlaxoSmithKline Consumer Healthcare S.R.L., priority 2009, dated 2022):
At least one structure is not confirmed: it was looked up by name or label, or the drawing left a doubt.

System: Bifidobacterium longum R175
Assay: API 50 CH growth on sugars
Format: cell-based
Conditions: after 48 hours at 37° C.; label = sugar

For `O=C(O)[C@H](O)[C@@H](O)[C@H](O)[C@H](O)CO` [gluconate], which “able to grow on sugar (API 50 CH results)” value is on record?
The value was “−”.
